Results are given in words; binding and its absence hold for the method and conditions named. Some entries that bind do so weakly or less than the wild type. Sequences can lack the tags named with a protein.
Target: T1, GarA (Mycobacterium tuberculosis) (UniProt P9WJA9)
T1 sequence (looked up): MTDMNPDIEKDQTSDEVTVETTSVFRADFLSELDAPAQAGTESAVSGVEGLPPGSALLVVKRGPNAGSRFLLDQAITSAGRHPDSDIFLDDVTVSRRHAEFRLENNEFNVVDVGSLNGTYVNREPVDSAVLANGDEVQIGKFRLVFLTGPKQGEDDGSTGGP
Test: ELISA screening

binding: binds
B1: GarA-binder of SEQ ID No: 47 (designed binder)
chain: GSVKVKFLYLGEEKEVDTSKIWFVMRAGKHVYFQYDDNGKYGIGWVREKDAPKELLDMLARAEREKKL
